The supplement of paper PMC10849652
The list shows a part of the results.

By UniProt entry, the sequences of proteins in these tests, tags left out. Where a name states a change or a piece, a line headed by the entry shows the natural chain unless it says otherwise.
UniProt P56962: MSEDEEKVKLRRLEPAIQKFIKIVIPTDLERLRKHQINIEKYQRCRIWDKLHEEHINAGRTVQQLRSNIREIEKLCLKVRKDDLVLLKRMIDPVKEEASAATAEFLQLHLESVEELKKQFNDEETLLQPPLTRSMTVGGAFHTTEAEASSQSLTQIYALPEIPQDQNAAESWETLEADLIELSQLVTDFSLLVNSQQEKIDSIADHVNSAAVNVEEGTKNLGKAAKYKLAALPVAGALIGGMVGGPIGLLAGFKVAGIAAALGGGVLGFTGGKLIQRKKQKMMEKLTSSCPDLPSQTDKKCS
UniProt Q9H7L9: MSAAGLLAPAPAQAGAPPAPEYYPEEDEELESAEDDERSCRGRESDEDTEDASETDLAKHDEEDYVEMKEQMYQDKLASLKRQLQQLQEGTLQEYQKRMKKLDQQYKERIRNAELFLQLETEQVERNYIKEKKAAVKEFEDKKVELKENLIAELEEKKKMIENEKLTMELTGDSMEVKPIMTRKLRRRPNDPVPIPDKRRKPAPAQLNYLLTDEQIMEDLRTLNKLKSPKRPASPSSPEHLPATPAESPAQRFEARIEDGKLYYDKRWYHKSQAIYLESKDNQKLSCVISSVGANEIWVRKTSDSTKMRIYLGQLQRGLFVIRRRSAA
UniProt Q96BN2: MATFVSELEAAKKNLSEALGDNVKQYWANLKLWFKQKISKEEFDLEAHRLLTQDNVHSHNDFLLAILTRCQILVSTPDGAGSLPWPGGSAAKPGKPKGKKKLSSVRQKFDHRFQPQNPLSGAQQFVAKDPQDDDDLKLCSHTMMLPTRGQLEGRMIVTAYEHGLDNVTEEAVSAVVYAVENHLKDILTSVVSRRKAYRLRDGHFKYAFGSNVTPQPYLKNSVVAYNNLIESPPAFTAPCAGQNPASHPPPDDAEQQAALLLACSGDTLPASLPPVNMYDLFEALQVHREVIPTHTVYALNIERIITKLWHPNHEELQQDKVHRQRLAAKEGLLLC
UniProt O95926: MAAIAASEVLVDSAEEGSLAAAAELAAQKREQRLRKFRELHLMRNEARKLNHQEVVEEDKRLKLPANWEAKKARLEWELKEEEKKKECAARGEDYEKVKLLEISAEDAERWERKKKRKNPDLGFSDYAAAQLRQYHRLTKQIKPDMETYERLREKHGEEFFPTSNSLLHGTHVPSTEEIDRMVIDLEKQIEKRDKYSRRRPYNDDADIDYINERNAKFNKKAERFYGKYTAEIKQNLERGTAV
UniProt Q15750: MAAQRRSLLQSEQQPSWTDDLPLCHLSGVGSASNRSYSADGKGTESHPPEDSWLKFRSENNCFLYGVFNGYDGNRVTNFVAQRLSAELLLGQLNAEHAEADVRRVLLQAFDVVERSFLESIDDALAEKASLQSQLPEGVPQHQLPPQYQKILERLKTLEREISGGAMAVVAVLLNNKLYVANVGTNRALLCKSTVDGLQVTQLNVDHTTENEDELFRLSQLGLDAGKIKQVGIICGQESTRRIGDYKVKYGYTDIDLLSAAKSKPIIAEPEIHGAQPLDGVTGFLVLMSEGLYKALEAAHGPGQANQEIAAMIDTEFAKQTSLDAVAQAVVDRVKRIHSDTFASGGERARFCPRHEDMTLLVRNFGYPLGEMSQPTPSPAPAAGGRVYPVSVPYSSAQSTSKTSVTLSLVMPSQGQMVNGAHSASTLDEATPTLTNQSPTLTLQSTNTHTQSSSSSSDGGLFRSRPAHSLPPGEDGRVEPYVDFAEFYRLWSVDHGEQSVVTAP
UniProt Q5T5C0: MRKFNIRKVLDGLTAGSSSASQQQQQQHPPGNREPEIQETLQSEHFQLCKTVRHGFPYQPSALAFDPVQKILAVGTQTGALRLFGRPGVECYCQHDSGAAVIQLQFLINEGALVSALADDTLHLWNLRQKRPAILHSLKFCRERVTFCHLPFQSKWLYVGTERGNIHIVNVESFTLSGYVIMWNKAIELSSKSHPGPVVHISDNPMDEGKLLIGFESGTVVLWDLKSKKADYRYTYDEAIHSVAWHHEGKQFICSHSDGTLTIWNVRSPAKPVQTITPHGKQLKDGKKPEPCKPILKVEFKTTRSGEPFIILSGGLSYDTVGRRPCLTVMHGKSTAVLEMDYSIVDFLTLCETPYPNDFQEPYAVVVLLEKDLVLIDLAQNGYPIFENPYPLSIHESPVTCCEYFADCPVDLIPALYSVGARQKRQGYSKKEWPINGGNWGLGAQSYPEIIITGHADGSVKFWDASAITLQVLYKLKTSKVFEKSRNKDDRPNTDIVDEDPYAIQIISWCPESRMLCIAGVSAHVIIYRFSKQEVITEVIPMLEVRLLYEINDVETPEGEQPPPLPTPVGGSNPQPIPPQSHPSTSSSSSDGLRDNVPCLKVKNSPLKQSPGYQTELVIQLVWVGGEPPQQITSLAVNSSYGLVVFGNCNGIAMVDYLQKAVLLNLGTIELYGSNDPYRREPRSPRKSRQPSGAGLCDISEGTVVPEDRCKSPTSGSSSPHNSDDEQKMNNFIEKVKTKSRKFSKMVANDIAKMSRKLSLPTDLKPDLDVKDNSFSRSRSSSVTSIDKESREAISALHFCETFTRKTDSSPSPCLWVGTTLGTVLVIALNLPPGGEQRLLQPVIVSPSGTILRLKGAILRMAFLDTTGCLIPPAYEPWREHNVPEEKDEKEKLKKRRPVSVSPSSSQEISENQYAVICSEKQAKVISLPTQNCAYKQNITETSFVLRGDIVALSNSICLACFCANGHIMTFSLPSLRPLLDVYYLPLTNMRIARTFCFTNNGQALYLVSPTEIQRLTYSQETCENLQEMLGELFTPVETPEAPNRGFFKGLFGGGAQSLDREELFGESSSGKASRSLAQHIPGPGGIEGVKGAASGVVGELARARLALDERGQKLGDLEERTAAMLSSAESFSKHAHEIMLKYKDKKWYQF
UniProt P31948, whole entry, looked up: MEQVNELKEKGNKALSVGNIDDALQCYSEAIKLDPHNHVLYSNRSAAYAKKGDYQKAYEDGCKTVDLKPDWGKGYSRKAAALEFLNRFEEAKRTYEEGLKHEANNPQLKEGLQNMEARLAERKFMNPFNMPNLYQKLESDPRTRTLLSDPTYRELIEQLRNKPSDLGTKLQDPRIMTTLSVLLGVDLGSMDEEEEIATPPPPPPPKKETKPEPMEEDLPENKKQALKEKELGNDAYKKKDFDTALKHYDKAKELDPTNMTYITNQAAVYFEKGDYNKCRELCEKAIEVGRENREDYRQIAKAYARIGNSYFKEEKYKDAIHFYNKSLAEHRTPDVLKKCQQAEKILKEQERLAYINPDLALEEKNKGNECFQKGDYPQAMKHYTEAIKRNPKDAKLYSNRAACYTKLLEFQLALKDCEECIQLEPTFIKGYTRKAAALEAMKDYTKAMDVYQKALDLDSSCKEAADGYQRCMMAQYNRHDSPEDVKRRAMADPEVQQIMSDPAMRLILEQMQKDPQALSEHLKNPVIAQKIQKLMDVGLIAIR
UniProt P16949: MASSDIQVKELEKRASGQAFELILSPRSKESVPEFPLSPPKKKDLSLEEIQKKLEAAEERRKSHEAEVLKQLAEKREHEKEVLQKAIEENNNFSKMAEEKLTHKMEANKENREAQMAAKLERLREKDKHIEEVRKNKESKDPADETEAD
UniProt Q96SI9: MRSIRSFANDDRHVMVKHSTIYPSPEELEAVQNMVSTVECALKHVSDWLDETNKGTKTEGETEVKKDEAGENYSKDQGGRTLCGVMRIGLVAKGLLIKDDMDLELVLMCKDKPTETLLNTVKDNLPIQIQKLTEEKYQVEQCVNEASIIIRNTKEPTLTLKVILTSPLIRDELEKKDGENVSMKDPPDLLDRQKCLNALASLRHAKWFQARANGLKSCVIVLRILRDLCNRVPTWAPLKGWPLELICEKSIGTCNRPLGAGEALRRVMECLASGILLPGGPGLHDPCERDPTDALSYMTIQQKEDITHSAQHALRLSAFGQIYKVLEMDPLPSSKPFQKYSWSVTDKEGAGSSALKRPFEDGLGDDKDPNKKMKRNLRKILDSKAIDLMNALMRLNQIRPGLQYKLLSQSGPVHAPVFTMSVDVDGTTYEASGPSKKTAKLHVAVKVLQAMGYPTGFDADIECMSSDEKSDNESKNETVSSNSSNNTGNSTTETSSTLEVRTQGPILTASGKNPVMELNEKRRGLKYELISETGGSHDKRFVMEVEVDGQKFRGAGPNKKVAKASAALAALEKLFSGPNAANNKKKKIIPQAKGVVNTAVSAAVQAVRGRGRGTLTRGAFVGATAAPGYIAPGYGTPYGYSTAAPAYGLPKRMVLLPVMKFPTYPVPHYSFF
UniProt O43752: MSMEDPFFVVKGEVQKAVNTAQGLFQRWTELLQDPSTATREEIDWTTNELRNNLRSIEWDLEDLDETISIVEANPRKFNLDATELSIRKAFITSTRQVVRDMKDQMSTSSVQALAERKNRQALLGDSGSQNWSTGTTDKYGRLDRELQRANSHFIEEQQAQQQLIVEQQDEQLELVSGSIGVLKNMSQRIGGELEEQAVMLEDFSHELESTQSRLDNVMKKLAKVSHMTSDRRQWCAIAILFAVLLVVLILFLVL
UniProt P50225: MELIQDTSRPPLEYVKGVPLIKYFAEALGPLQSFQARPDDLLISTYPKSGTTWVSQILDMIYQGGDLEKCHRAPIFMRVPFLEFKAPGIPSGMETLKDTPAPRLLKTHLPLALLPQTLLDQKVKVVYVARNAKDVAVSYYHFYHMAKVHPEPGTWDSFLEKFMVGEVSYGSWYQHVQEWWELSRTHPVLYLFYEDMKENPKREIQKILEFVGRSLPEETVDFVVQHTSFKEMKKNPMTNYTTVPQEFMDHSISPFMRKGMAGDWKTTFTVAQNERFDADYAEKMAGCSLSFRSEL
UniProt O43426, whole entry, looked up: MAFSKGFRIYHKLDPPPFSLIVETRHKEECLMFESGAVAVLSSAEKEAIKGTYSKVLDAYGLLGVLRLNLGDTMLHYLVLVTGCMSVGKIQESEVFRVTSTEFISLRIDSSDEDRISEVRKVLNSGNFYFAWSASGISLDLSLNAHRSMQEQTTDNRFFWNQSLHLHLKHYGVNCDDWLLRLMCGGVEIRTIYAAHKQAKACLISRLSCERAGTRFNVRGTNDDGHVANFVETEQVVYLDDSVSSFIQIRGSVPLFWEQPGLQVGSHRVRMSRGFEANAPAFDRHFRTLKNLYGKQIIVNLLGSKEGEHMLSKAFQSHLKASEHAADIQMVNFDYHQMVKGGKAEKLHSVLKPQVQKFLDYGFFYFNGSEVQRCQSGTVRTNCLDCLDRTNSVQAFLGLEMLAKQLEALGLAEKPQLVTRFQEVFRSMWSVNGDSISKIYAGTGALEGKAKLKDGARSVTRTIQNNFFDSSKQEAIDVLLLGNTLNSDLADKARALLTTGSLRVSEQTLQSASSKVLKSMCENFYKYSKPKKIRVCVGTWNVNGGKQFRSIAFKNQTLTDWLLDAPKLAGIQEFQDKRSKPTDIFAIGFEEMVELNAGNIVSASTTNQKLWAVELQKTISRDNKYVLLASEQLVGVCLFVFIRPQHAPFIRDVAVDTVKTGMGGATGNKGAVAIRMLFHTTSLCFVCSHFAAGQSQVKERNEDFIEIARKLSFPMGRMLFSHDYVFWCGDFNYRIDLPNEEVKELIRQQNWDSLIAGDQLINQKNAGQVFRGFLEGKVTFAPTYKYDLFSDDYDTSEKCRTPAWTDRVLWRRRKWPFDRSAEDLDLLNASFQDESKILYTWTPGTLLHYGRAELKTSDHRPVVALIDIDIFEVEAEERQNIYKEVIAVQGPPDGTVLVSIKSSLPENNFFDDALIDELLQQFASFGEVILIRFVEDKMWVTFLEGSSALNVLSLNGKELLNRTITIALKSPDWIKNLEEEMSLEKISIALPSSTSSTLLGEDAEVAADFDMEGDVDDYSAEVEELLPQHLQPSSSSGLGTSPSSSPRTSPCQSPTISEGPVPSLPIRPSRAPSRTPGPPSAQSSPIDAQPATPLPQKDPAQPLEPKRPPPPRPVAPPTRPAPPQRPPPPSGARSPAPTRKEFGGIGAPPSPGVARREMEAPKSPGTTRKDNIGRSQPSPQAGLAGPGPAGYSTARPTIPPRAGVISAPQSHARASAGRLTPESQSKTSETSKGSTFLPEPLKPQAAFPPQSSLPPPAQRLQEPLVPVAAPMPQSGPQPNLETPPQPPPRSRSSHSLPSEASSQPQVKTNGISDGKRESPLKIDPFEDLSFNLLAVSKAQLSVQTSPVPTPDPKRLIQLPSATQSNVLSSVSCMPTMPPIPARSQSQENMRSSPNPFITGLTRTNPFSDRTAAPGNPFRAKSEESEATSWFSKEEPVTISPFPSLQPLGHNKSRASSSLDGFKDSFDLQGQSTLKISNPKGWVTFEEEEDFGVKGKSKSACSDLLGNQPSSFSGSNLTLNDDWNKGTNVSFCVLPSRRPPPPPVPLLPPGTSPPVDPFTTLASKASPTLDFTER
UniProt Q9UNK0: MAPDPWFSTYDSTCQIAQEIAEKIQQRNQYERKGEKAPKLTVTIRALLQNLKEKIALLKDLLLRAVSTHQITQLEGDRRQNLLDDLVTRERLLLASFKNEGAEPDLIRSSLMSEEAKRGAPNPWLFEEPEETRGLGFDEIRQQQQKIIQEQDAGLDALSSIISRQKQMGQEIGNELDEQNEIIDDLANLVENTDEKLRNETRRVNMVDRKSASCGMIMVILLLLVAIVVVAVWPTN

Tests used:
Assay in all cases: log2 fold change, soluble protein after heating vs DMSO (PISA); higher = thermal stabilisation; K562 lysate, 10 uM; active = over 0.2 and 3.5 SD of the protein, either way, in both replicates (recomputed)
[1] = compound: C1=CC=C(C=C1)[C@H](COC2=CC3=C(C=C2)NC(=O)N3)NC(=O)C4=CC=CN(C4=O)CC5=CC(=C(C=C5)F)F
In short: (§1)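 Dounce homogenisation of K562 pellets in PBS pH 7.4 with 1 mM MgCl2 produced a crude extract, used at 1 mg/mL protein. Exposure to 10 μM compound lasted 30 min, and aliquots were then heated for 3 min across 48°C-58°C, pooled and brought to 0.5% NP-40 at 4°C. The supernatant after 21,000xg for 90 min was quantified by TMTpro 16plex LC-MS/MS with channel sums equalised. Duplicate values are given as log-two fold change in thermal stability relative to solvent controls.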

[2] = compound: CC1=C(SC2=C1C(=N[C@H](C3=NN=C(N32)C)CC(=O)N)C4=CC=C(C=C4)Cl)C
In short: as §1

[3] = compound: CC1=C2C(=CC=C1)N=C(N(C2=O)C3=CC=CC=C3C)CN4C=NC5=C(N=CN=C54)N
In short: as §1

[4] = compound: Cc1sc2c(c1C)C(c1ccc(Cl)cc1)=N[C@@H](CC(=O)OC(C)(C)C)c1nnc(C)n1-2
In short: as §1

[5] = compound: c1ccc([C@@H]2C[C@H]2NC2CCNCC2)cc1
In short: as §1

Measured: log2 fold change

SYNE2 isoform 2 (UniProt Q8WXH0)
inactive: [1] -0.037 | [2] 0.044 | [3] 0.02 | [4] -0.065 | [5] -0.416

SWAP70 (UniProt Q9UH65)
inactive: [1] 0.058 | [2] -0.016 | [3] -0.035 | [4] 0.011 | [5] -0.081

STX17 (UniProt P56962)
inactive: [1] 0.038 | [2] 0.069 | [3] -0.025 | [4] -0.086 | [5] 0.006

STUB1 (UniProt Q9UNE7)
inactive: [1] -0.04 | [2] 0.036 | [3] -0.006 | [4] 0.035 | [5] 0.02

STON2 isoform 3 (UniProt Q8WXE9)
inactive: [1] -0.059 | [2] 0.052 | [3] 0.07 | [4] 0.017 | [5] 0.053

SUPT6H (UniProt Q7KZ85)
inactive: [1] 0.03 | [2] 0.009 | [3] 0.011 | [4] 0.01 | [5] -0.012

SUGP2 (UniProt Q8IX01)
inactive: [1] -0.224 | [2] 0.022 | [3] 0.156 | [4] 0.011 | [5] 0.143

STXBP2 (UniProt Q15833)
inactive: [1] -0.036 | [2] 0.007 | [3] -0.011 | [4] -0.002 | [5] 0.064

SYNE1 (UniProt Q8NF91)
inactive: [1] 0.041 | [2] -0.002 | [3] 0.091 | [4] -0.1 | [5] -0.056

SUDS3 (UniProt Q9H7L9)
inactive: [1] 0.008 | [2] -0.035 | [3] 0.027 | [4] -0.027 | [5] -0.052

SUPT5H (UniProt O00267)
inactive: [1] 0 | [2] 0.021 | [3] 0.003 | [4] -0.013 | [5] 0.039

TADA1 (UniProt Q96BN2)
inactive: [1] -0.054 | [2] 0.011 | [3] 0 | [4] 0 | [5] 0.063

STK11 (UniProt Q15831)
inactive: [1] 0.043 | [2] 0.029 | [3] 0.028 | [4] 0.003 | [5] -0.05

TAF10 (UniProt Q12962)
inactive: [1] 0.014 | [2] -0.035 | [3] -0.079 | [4] 0.041 | [5] 0.045

STX10 (UniProt O60499)
inactive: [1] 0.11 | [2] -0.029 | [3] 0.051 | [4] -0.059 | [5] -0.167

SYAP1 (UniProt Q96A49)
inactive: [1] 0.154 | [2] -0.058 | [3] -0.015 | [4] 0.019 | [5] 0.026

SYTL4 (UniProt Q96C24)
inactive: [1] -0.021 | [2] 0.174 | [3] 0.047 | [4] 0.041 | [5] 0.215

SYF2 (UniProt O95926)
inactive: [1] 0.021 | [2] -0.102 | [3] 0.001 | [4] 0.015 | [5] -0.024

TAB1 (UniProt Q15750)
inactive: [1] -0.007 | [2] 0.045 | [3] -0.023 | [4] -0.001 | [5] 0.028

STXBP5 (UniProt Q5T5C0)
inactive: [1] 0.008 | [2] -0.014 | [3] 0.037 | [4] -0.035 | [5] -0.027

STK4 (UniProt Q13043)
inactive: [1] -0.031 | [2] -0.098 | [3] -0.05 | [4] -0.029 | [5] -0.124

STRN4 isoform 3 (UniProt Q9NRL3)
inactive: [1] 0.069 | [2] -0.013 | [3] -0.002 | [4] 0.036 | [5] -0.005

STX12 (UniProt Q86Y82)
inactive: [1] 0.059 | [2] 0 | [3] 0.042 | [4] -0.055 | [5] -0.037

TAF1B (UniProt Q53T94)
inactive: [1] -0.073 | [2] 0.071 | [3] 0.499 | [4] -0.13 | [5] -0.008

SUPV3L1 (UniProt Q8IYB8)
inactive: [1] -0.025 | [2] 0.017 | [3] 0.028 | [4] 0.03 | [5] 0.011

STK36 (UniProt Q9NRP7)
inactive: [1] -0.014 | [2] 0.174 | [3] 0.163 | [4] -0.43 | [5] -0.42

TAF6 isoform 3 (UniProt P49848)
inactive: [1] 0.048 | [2] 0.095 | [3] 0.042 | [4] 0.063 | [5] 0.02

STIP1 isoform 2 (UniProt P31948)
inactive: [1] 0.016 | [2] -0.015 | [3] -0.028 | [4] 0.025 | [5] 0.039

SURF2 (UniProt Q15527)
inactive: [1] -0.013 | [2] 0.054 | [3] -0.054 | [4] 0.056 | [5] -0.032

SYNJ2 (UniProt O15056)
inactive: [1] -0.051 | [2] -0.115 | [3] 0.115 | [4] -0.048 | [5] 0.031

STMN1 (UniProt P16949)
inactive: [1] 0.006 | [2] -0.008 | [3] 0.003 | [4] -0.022 | [5] -0.03

STRBP (UniProt Q96SI9)
inactive: [1] 0.003 | [2] -0.012 | [3] -0.007 | [4] 0.038 | [5] 0

STT3A (UniProt P46977)
inactive: [1] -0.001 | [2] 0.004 | [3] 0.028 | [4] -0.019 | [5] -0.026

SUPT16H (UniProt Q9Y5B9)
inactive: [1] -0.011 | [2] -0.018 | [3] 0.014 | [4] -0.007 | [5] 0.052

STX6 (UniProt O43752)
inactive: [1] 0.004 | [2] -0.018 | [3] 0.026 | [4] -0.009 | [5] -0.024

STRIP1 (UniProt Q5VSL9)
inactive: [1] 0.006 | [2] 0.029 | [3] -0.021 | [4] 0.029 | [5] 0.03

STX4 (UniProt Q12846)
inactive: [1] 0.024 | [2] -0.022 | [3] 0.061 | [4] -0.055 | [5] 0.066

STRADA (UniProt Q7RTN6)
inactive: [1] 0.049 | [2] -0.014 | [3] 0.019 | [4] -0.062 | [5] 0.006

SYK (UniProt P43405)
inactive: [1] -0.016 | [2] 0.06 | [3] 0.135 | [4] 0.008 | [5] -0.052

SULT1A1 (UniProt P50225)
inactive: [1] -0.022 | [2] -0.02 | [3] 0 | [4] 0.051 | [5] 0.088

SUMF2 (UniProt Q8NBJ7)
inactive: [1] 0.021 | [2] -0.056 | [3] 0.035 | [4] -0.04 | [5] -0.042

STK26 (UniProt Q9P289)
inactive: [1] -0.015 | [2] -0.015 | [3] 0.008 | [4] -0.015 | [5] 0.02

SYNGR2 (UniProt O43760)
inactive: [1] -0.075 | [2] -0.057 | [3] 0.06 | [4] -0.168 | [5] -0.063

SUGT1 (UniProt Q9Y2Z0)
inactive: [1] 0.044 | [2] -0.014 | [3] -0.037 | [4] -0.007 | [5] 0.077

Quoted from above (4 entries):
STXBP5 (UniProt Q5T5C0)
inactive: [1] 0.008 | [2] -0.014 | [3] 0.037 | [4] -0.035 | [5] -0.027

STK4 (UniProt Q13043)
inactive: [1] -0.031 | [2] -0.098 | [3] -0.05 | [4] -0.029 | [5] -0.124

STRN4 isoform 3 (UniProt Q9NRL3)
inactive: [1] 0.069 | [2] -0.013 | [3] -0.002 | [4] 0.036 | [5] -0.005

STX12 (UniProt Q86Y82)
inactive: [1] 0.059 | [2] 0 | [3] 0.042 | [4] -0.055 | [5] -0.037

Next records

TAF5L (UniProt O75529)
inactive: [1] -0.066 | [2] -0.03 | [3] -0.18 | [4] 0.017 | [5] 0.261

STX18 (UniProt Q9P2W9)
inactive: [1] -0.047 | [2] 0.068 | [3] 0.053 | [4] -0.023 | [5] 0.045

SYNCRIP (UniProt O60506)
inactive: [1] -0.003 | [2] 0.014 | [3] -0.01 | [4] 0.029 | [5] 0.032

SYNJ1 (UniProt O43426)
inactive: [1] 0.022 | [2] 0.06 | [3] 0.034 | [4] 0.011 | [5] -0.015

STX8 (UniProt Q9UNK0)
inactive: [1] 0.012 | [2] -0.051 | [3] 0.036 | [4] 0.013 | [5] 0.038

STRAP isoform 2 (UniProt Q9Y3F4)
inactive: [1] -0.001 | [2] 0.049 | [3] -0.029 | [4] 0.03 | [5] 0.032

SYNRG (UniProt Q9UMZ2)
inactive: [1] -0.033 | [2] 0.05 | [3] 0 | [4] 0.005 | [5] 0.032

STX16 isoform 2 (UniProt O14662)
inactive: [1] -0.007 | [2] 0.029 | [3] -0.006 | [4] -0.021 | [5] 0.027

SUPT4H1 (UniProt P63272)
inactive: [1] -0.008 | [2] 0.035 | [3] 0.029 | [4] 0.023 | [5] 0.038
